Values joined by “and” are separate entries in the source; they are usually repeats but may differ in a detail not shown here. Equal values may be shown once. Further values from the same series stand in other lists.
Key:
[1] = Pharmacokinetic study in mice, plasma and brain structures, LC/MS/MS; assay type: in vivo, Swiss albino mice; conditions: 0.625 mg/kg i.p.
Experimental: Blood samples from the Swiss albino mice were collected at 0 (pre-dose), 5, 15, 30, 60, 120, 240 and 480 min after a compound administration. The blood samples and brain structures were collected under general anesthesia induced by i.p. injection of 50 mg/kg ketamine plus 8 mg/kg xylazine. The blood samples were taken into heparinized tubes, immediately centrifuged at 1000 × g for 10 min, and plasma was collected. The plasma samples and brain structures were immediately frozen at -30°C and -80°C, respectively.
The plasma and tissue sample pretreatment procedure involved acetonitrile precipitation. A 5 μL aliquot of the IS working solution (100 ng/mL) was added to 50 μL of the collected mouse plasma sample, which was then vortex-mixed for 10 seconds. Thereafter, 200 μL of acetonitrile was added, vortexed during 20 min, and then centrifuged (1000 × g, 10 min). The supernatant (100 μL) was then transferred to insert placed in an autosampler vial, and a 10 μL volume of this was injected onto the HPLC column. Tissue samples were thawed before use, and whole hippocampus, striatum and frontal cortex were weighted and placed in a glass mortar and pestle tissue grinder and homogenized with an appropriate amount of phosphate buffer (pH 7.4) in 1:5 ratio. Afterward, 50 μL of tissue homogenates were transferred to new Eppendorf tubes and spiked with 5 μL of the internal standard working solution. All samples were stored on ice during the preparation process. This was followed by procedures like those described above.
The LC/ESI-MS/MS experiments were performed on an Applied Biosystems/MDS Sciex (Concord, Ontario, Canada) API 2000 triple quadrupole mass spectrometer equipped with an electrospray (ESI) ionization interface. This instrument was coupled to an Agilent 1100 (Agilent Technologies, Waldbronn, Germany) LC system. Data acquisition and processing were accomplished using Sciex Analyst 1.4.2 data collection and integration software.
An XBridge C18 (2.1 x 30 mm, 3.5 μm) analytical column (Waters, Milford, Massachusetts, USA) was used for compound separation. The temperatures of the column thermostat and the autosampler were set at 25°C and 10°C, respectively. The mobile phase consisted of a mixture of acetonitrile with addition of 0.1% formic acid (solvent A) and water with addition of 0.1% formic acid (solvent B) and was set at a flow rate of 0.6 mL/min. Starting amount of solvent A is 10%, isocratic elution from 0 to 3 min, and then gradient up to 90% of solvent A, and maintained to 10 min, and then gradient down to 10% of solvent A, and maintained to 15 min.
The ion source parameters were as follows: ion spray voltage: 5500 V; nebulizer gas (gas 1): 20 psi; turbo gas (gas 2): 25 psi; temperature of the heated nebulizer: 400°C; curtain gas: 40 psi; collision gas: 6 psi. Mass spectra were acquired by SRM with precursor/predominant product ion transitions for each analyte. The mass spectral Q1→Q3 transitions monitored for AZ-853, AZ-861 and for IS (nebivolol), were m/z 453.9→235.1; 504.3→285.1 and 406.2→151.1, respectively. The peak widths of precursor and product ions were set to 0.7 full width half-height. Quantification was done via peak area ratio.
Pharmacokinetic parameters were calculated by a non-compartmental approach from the average concentration values, using Phoenix WinNonlin software (Certara, Princeton, NJ 08540 USA). First order elimination rate constant (λz) was calculated by linear regression of time versus log concentration. Next, the area under the mean serum and tissue concentration versus time curve (AUC0→t) was estimated using the log-linear trapezoidal rule (1), where Ci is the plasma concentration measured at t1.
AUC0→t=∑i=1n((Ci+Ci+1)/2)∙(ti+1−ti). (1)
Area under the first-moment curve (AUMC0→t) was estimated by calculation of the total area under the first-moment curve using the Eq (2), where Ci is the plasma concentration measured at t1. AUMC0→t=∑i=1n((ti∙Ci+ti+1∙Ci+1)/2)∙(ti+1−ti). […]

[2] = Body weight measurement in the 17-day experiment; assay type: in vivo, Swiss albino mice; conditions: mouse, 0.625 mg/kg
Experimental: The Swiss albino mice were used in the experiment. AZ-853 and AZ-861 were injected once daily for 16 consecutive days. On the 1st and 15th day the administration of the compounds, 18-h spontaneous animal activity was registered (see below). FST, as described earlier, was performed on the 14th day just before the next treatment. To ensure that the effects observed in FST are not the result of increased motility of animals, on the 13th day, just before the next administration, the locomotor activity was measured as described earlier, from 2 to 6 min after test start, i.e. in the period identical to the duration of FST. Blood and organ collection was performed on the 17th day at 24 h after the last dose and fasting.
The body weight was measured daily immediately prior to administration of the drugs. On the 17th day, the blood was collected from the Swiss albino mice sacrificed by decapitation 20 min after i.p. administration of heparin (2500 units/mouse) and then centrifuged at 600 × g (15 min, 4°C) to separate plasma. The liver, heart, and kidney were also collected and weighed.

For `Cn1c(=O)c2c(nc3n(CCCCN4CCN(c5ccccc5F)CC4)ccn23)n(C)c1=O` [AZ-853, 8-(4-(4-(2-fluorophenyl)piperazin-1-yl)butyl)-1,3-dimethyl-1H-imidazo[2,1-f]purine-2,4(3H,8H)-dione], the “Concentration, frontal cortex (individual animals)” value (“Concentration, frontal cortex” below) ([1]; 5 min) was 287.52 ng/mL and 304.17 ng/mL and 320.45 ng/mL and 333.56 ng/mL and 324.78 ng/mL, the “Concentration, hippocampus (individual animals)” value (shortened to “Concentration, hippocampus”) ([1]; 5 min) was 183.51 ng/mL and 176.53 ng/mL and 161.56 ng/mL and 181.31 ng/mL and 236.67 ng/mL and the “Concentration, plasma (individual animals)” value ([1]; 5 min) was 18.11 ng/mL and 19.41 ng/mL and 25.22 ng/mL and 26.33 ng/mL and 24.15 ng/mL. For the same compound, the “Concentration, striatum (individual animals)” value (from here on “Concentration, striatum”) ([1]; 5 min) was 408.32 ng/mL and 297.74 ng/mL and 298.61 ng/mL and 409.37 ng/mL and 315.43 ng/mL, the “Concentration, frontal cortex” value ([1]; 240 min) was 27.82 ng/mL and the “Concentration, hippocampus” value ([1]; 240 min) was 9.98 ng/mL. For the same compound, the “Concentration, striatum” value ([1]; 240 min) was 6.18 ng/mL, the “Concentration, frontal cortex” value ([1]; 480 min) was 17.61 ng/mL and 16.44 ng/mL and 11.88 ng/mL and 10.46 ng/mL and 12.77 ng/mL and the “Concentration, hippocampus” value ([1]; 480 min) was 2.02 ng/mL and 3.09 ng/mL and 3.05 ng/mL and 1.66 ng/mL and 1.14 ng/mL and 1.45 ng/mL. The “Concentration, plasma (individual animals)” value ([1]; 480 min) was 0.39 ng/mL and 0.21 ng/mL and 0.38 ng/mL and 0.24 ng/mL and 0.27 ng/mL, the “Concentration, striatum” value ([1]; 480 min) was 1.54 ng/mL and 1.66 ng/mL and 0.78 ng/mL and 0.89 ng/mL and 1.67 ng/mL and 1.85 ng/mL and the body weight ([2]; day 11, individual mouse) was 24.2 g (2×) and 24.4 g and 25.8 g and 24.0 g and 24.9 g and 23.7 g and 23.3 g and 25.4 g and 26.9 g. For the same compound, the body weight ([2]; day 12, individual mouse) was 24.9 g and 25.2 g and 26.7 g and 24.7 g and 26.4 g and 25.1 g and 24.5 g and 24.4 g and 26.1 g and 27.2 g, the body weight ([2]; day 13, individual mouse) was 24.7 g and 25.7 g and 26.3 g and 24.5 g and 26.4 g and 24.2 g and 24.8 g (2×) and 26.9 g and 27.1 g and the body weight ([2]; day 14, individual mouse) was 25.6 g and 26.5 g and 26.0 g (2×) and 25.0 g and 26.4 g and 24.3 g and 26.2 g and 25.5 g and 27.6 g. For the same compound, the body weight ([2]; day 15, individual mouse) was 25.1 g and 27.2 g and 27.0 g and 26.0 g and 26.9 g and 24.9 g and 26.3 g and 25.5 g and 25.6 g and 26.4 g.

From article PMC7413516, “Antidepressant-like activity and safety profile evaluation of 1H-imidazo[2,1-f]purine-2,4(3H,8H)-dione derivatives as 5-HT1A receptor partial agonists” (PLoS ONE, 2020)
